The record followed here is patent US20080253967A1, “Halo-Stilbene Derivatives And Their Use For Binding And Imaging Of Amyloid Plaques” (priority 2007, published 2008).

By UniProt entry, the sequences of proteins in these tests, tags left out. Residues count along the entry.
UniProt P05067, 672-711 limits assumed: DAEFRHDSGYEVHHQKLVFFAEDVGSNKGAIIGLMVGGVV

For one data set, the target named is amyloid plaques (Homo sapiens, UniProt P05067). Put plainly: Inhibition of ^125I-IMPY binding in AD brain homogenates. The conditions noted are these: read-out: Binding Affinity (Ki vs. ^125I-IMPY). The text has this: Moreover, the binding of IMPY appears to be specific for cortical vs. cerebellar tissue from patients with AD, is largely absent in cortex homogenates from elderly control brains, and is fully displaceable by the presumed amyloid imaging agent PIB. […] Thus, inhibition of ^125I-IMPY binding in human AD brain homogenates was taken as an assay for the potential of test compounds to bind to amyloid plaques.
Postmortem brain tissue was obtained and neuropathological diagnosis was confirmed in accordance with the NIA-Reagan Institute Consensus Group criteria. Homogenates were then prepared from dissected gray matter, pooled in phosphate buffered saline and aliquoted into 1-ml portions (100 mg wet tissue/ml), which could be stored at −70° C. for 3-6 months without loss of binding signal.
For the binding assays brain homogenates were incubated with ^125I-IMPY (0.04-0.06 nM diluted in phosphate buffered saline (PBS)) and test compound (10^−5-10^−10 M diluted in PBS containing 0.1% bovine serum albumin (BSA)). […] The bound and free radioactivity was separated by vacuum filtration followed by 2×3 ml washes of PBS. […]
For the binding assays brain homogenates were incubated with ^125I-IMPY (0.04-0.06 nM diluted in PBS) and test compound (10^−5-10^−10 M diluted in PBS containing 0.1% BSA). […] The bound and free radioactivity was separated by vacuum filtration followed by 2×3 ml washes of PBS. […]

Data set [1] is described as follows: Organ distribution in normal mice after i.v. injection. To be noted: normal male mice.

The structures given here were assigned with low confidence; some may be wrong.

As to `CNc1ccc(/C=C/c2cc(I)cc(OCCO)c2)cc1`, at amyloid plaques, the Ki came to 9.4 nM. In addition, the results for the “Biodistribution Brain (% dose/g in brain)” value in data set [1] (2 min) and in data set [1] (60 min) were 3.40 ± 0.3 % dose/g and 0.43 ± 0.05 % dose/g, respectively.
